Reference: PMC3570535
For at least one entry, the source does not settle the construct or the ends of the probe. For part of these data: A weaker result is weaker than the reference pair of the same experiment. For part of these data: Protein sequences can lack the tags named with them.

By UniProt entry, the sequences of proteins in these tests, tags left out. Residues count along the entry.
UniProt P10515, 87-647: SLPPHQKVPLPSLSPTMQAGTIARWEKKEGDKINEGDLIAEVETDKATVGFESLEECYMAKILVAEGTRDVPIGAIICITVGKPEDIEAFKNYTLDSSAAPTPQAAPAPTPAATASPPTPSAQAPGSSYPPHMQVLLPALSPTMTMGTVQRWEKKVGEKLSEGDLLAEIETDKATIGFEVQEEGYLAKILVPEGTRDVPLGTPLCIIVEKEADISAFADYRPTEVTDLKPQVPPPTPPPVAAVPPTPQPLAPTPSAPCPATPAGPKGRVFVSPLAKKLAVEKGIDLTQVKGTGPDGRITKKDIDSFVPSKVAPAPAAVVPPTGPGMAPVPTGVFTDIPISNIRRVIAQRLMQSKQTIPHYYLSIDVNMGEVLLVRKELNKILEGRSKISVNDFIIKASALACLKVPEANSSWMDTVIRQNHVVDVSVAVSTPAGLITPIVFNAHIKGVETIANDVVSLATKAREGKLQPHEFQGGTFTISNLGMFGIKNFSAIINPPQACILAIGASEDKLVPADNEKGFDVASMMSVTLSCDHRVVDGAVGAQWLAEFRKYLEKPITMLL

How the values were obtained:
Assay in all cases: UV cross-linking
[1] = molecular target: Hs-E2 (DLAT) (Homo sapiens) (UniProt P10515); settings: ~100 ng protein, weakest, compared with green-lineage proteins; 20 mM HEPES/KOH pH 7.8, 5 mM MgCl2, 60 mM KCl, RT; 5 min (UV cross-linking, 254 nm, 1 J/cm2) or 15 min (filter binding); recombinant protein; protein details: His6; label: 32P-UTP (internal); probe letters rebuilt from the primers and the genome
[2] = molecular target: T1, Syn-E2 (Synechocystis sp. PCC 6803) (UniProt P74510); settings: ~100 ng protein; 20 mM HEPES/KOH pH 7.8, 5 mM MgCl2, 60 mM KCl, RT; 5 min (UV cross-linking, 254 nm, 1 J/cm2) or 15 min (filter binding); recombinant protein; protein details: His6; label: 32P-UTP (internal); probe letters rebuilt from the primers and the genome
T1 sequence (looked up, limits assumed): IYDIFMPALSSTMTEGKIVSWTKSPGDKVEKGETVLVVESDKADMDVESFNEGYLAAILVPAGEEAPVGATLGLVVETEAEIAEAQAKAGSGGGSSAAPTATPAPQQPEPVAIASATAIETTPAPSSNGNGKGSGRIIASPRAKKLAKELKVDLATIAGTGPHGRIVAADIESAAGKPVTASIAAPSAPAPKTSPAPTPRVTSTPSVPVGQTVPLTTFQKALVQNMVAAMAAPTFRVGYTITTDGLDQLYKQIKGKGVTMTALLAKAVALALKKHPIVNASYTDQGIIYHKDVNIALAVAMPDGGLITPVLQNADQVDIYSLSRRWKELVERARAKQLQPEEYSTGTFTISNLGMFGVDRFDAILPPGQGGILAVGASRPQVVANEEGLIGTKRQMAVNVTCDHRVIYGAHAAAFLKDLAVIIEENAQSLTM

[3] = molecular target: T2, Sc-E2 (Lat1) (Saccharomyces cerevisiae) (UniProt P12695); settings: ~100 ng protein, weaker than green-lineage proteins; 20 mM HEPES/KOH pH 7.8, 5 mM MgCl2, 60 mM KCl, RT; 5 min (UV cross-linking, 254 nm, 1 J/cm2) or 15 min (filter binding); recombinant protein; protein details: His6; label: 32P-UTP (internal); probe letters rebuilt from the primers and the genome
T2 sequence (looked up, limits assumed): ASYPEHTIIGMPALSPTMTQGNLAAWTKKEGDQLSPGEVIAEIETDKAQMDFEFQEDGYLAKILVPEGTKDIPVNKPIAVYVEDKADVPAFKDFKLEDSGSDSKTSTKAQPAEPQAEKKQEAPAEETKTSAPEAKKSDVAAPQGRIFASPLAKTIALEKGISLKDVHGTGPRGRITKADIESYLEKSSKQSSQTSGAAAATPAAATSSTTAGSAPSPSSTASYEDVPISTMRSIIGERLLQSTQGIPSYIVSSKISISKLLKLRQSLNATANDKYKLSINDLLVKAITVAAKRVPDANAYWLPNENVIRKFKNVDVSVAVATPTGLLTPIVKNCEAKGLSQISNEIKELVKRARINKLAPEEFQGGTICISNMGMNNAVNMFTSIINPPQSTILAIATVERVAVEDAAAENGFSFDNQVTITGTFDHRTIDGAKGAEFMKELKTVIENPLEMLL

GGGUACCAUGCUUUUAAUAGAAGCUUGAAUUUAUAAAUUAAAAUAUUUUUACAAUAUUUUACGGAGAAAUUAAAACUUUAAAAAAAUUAACAUAUGA [psbA 5' UTR RNA]
binding result [1]: binds more weakly | binding result [2]: binds | binding result [3]: binds more weakly
